Results published in article PMC10279924.

Sequences of proteins named here, by UniProt entry; tags and fusion partners are left off. A change or cut given only in a name is not applied to a line headed by its entry.
UniProt Q9UTQ4: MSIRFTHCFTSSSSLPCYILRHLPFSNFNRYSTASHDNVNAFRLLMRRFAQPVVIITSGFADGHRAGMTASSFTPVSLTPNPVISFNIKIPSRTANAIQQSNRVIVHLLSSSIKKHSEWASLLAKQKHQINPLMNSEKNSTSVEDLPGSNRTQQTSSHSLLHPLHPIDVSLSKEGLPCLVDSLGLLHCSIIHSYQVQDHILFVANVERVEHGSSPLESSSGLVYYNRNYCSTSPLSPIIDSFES

Columns and labels:
Coq12-8xHis (S. pombe) [1] = target: Coq12-8xHis (S. pombe) (UniProt Q9UTQ4); assay: affinity purification with mass spectrometry; Coq12-8xHis purified with Ni-NTA agarose from the soluble fraction of S. pombe whole cells, eluted with 300 mM imidazole, 50 mM sodium phosphate, 500 mM ammonium sulfate pH 7.4; nanoLC-MS/MS, label-free quantitation against an empty-vector control
Coq12-8xHis (S. pombe) [2] = target: Coq12-8xHis (S. pombe) (UniProt Q9UTQ4); assay: affinity purification with mass spectrometry; Coq12-8xHis purified with Ni-NTA agarose from the soluble fraction of S. pombe mitochondria, eluted with 300 mM imidazole, 50 mM sodium phosphate, 500 mM ammonium sulfate pH 7.4; nanoLC-MS/MS, label-free quantitation against an empty-vector control

binding (Coq12-8xHis (S. pombe) [1]) | binding (Coq12-8xHis (S. pombe) [2]) | Binder
binds | binds | Isa1 (protein, UniProt P78859 1-190) MLSCLSKPALRCRSVNRLQFLRKLSLQEIQTLKTQHQYLGRTRLDVETPSLKPSAAGSGSTAPKPVTEREIASTRFMPRKNVIKLTPLAVEHLKKMQSSASMKGKMLRIGVKQKGCAGQAYSLEYIEKPDKFDEIVKQDGISIIVARRALLQIIGSVMDYRDDDLQSRFIFSNPNVKSTCGCGESFSTLK
– | binds | Coq11 (protein, UniProt O74482 1-276) MKIVVLGGSGFLGHNICKLAIAKGYEVVSVSRRGAGGLHNKEPWMDDVEWETLDAQKDPNSLLPVLRDASAVVNSVGILMENNYKKILQNPRGPVSHLINSLSSNMFKTGQNPLAPKPEEAKQSKNKVTFEAINRDLAIETAKIAAKANVPVYCYVSAHAAAPGLDPRYIKTKREAEREISKISNLRSIFLRPGFMYNFNDRPFTGALASLFTVSSSINRATSGALNFLGTASAEPLPSEEVALAALEAISDPSVKGPVEISELKSMAHKFKQKSL
– | binds | Coq4 (protein, UniProt O94453 1-272) MFYLNAHLEINKVVDVVMSLSKKFLKPSVASNQLRLLFTAAERKVNYPGHVPLSPLQRIFLVAGSAIMGLKAPWRGGDMISVLGDASGQPFFLHRLLNKMLVDKTGREILKDKPRMTSKSLNLPFLRTLPPNTLGKIYVDWIDKEHVGPDTRSPTRFVDDPEEAYVMQRYRESHDFYHAICNMPTNIEGELAIKWLEFVNMGLPVGALSALFGPLRLNCEQASRFRRVYIPWSIRNGLNAKTLINVYWEKELTNDIEDVRRRIRIEAAPPLV
binds | binds | Coq7 (enzyme, UniProt O74826 28-216) ISMGRKELSEKDSNILDSVIRVDQAGELGANQIYKGQHFILQFTDPKVAPTIQHMWDQEKYHLATFDNYVLKNRVRPTFLRPFWDIAGFALGAGTALLGTKAAMACTEAVETVIGGHYNDQLRETAHLENKAPEFKEIRSHLAEFRDDELEHLNTAVEGWNAKEAPAHALLTNAIQMGCKAAIWMCKRF
binds | binds | Isa2 (protein, UniProt O43045 1-205) MLMKSRVNLLFKGPFFFRERCFQTLLNPVIAIRQLSHGSLRNSRSCRIDAKSNTLTKEIFPKINNEFKIKNRFYSSKLANDQFTLQEQCDEKGIPFILYVKDSAKKQLEKIAERKPEENSVLRVTVDGGGCHGYQVSFRMDNKIGNADTVFVRGKARVVADNISLPLISGSEIEYTNELIGSSFQLLNNPRAKTSCGCNVSFDVE
binds | binds | Coq5 (enzyme, UniProt P87230 35-305) TSTSSKDTDTSSHMTHFGFKDVPEDEKEHLVKNVFSSVAKKYDEMNDAMSLGIHRLWKNIFVSRLNPGNSTVPMKILDVAGGTGDIAFRILNHATNHNGDRNTRVIVADINPDMLSVGLRRSKKTPYYDSGRVEFIEQNAEILDKIPDNSIDMYTIAFGIRNCTHIPKVLEQAYRVLKPGGVFSCLEFSKVYPAPLAELYRQYSFKILPLLGTIIAGDSQSYEYLVESIERFPDAKTFAKMIEDAGFTLAGETGYETLSFGIAAIHTGIKL
– | binds | Coq3 (enzyme, UniProt O74421 31-274) HSVSVNEVDHFNELAKTWWDWDGGSRLLHLMNSTRLDFMTEVFRERNCFSGKKILDIGCGGGILSESMARLGASVTAVDASPMAIEVAKKHASLDPVLNGRLEYIHGSVEGSQLPTTFDVVTCMEVLEHVEQPRDFLFSLMEKVKPNGRLVLSTISRTLLARLLTITLAEHVLRIVPVGTHTFEKFIRADELSNFLKEQNWIINDIRGVCYNPLKQQWTLDKPGSSGLGLSCNYFLSAQKPMSA
binds | binds | Coq6 (enzyme, UniProt Q9Y7Z9 1-479) MSSLVLRGVSRVEMPTISPTLGIYTRKFASQKILQRQFDVVIVGSGPVGLALAAGLQSNPVTQSLKVGLLDIQDTMKLKDWKFETYSNRCSSLTNHTRMFFDKIGAWDFARKDRIQPFQHILASDGLTNSSIHLDQKPGSEPMAFMSENVNLQYALLNSIIDKMNNNIKKPNLEFLMPCTITKLSKGENIYRTHIHTTTHGELTTKLLIGADGRNSIVRKYANISMPGWNYLTHAVVGTLKIDPLKGPAVAFQRFLPTGPLAYLPLPDNNATFVWSTRPHIASKLLRLPEETFVKFLNASFRLDYPDLSYLYQMDFSEPSKVNEQLDWRLQVKRNSNMQVPPVITEIVSGSRAAFPLRLAHVDEYVKEGIALCGDAAHNTHPLAGQGLNTGIQDVESLISALSFAIKHGQDIGSVFSLQPYFRDRYFKNHVYLGVVDKFHKLYAMENPVVTSVRTLGLSLFDRSASLKNFILSTVANGI

Results are given in words; binding and its absence hold for the method and conditions named. Binding seen in cells or lysates may run through a third protein. Here binding means that the protein was enriched with, or labelled near, the bait; the list need not be complete.
